Reference: PMC5476801
For at least one entry, the source does not settle the construct or the ends of the probe. Where cells or extracts were used, other partners may take part. At least one verdict was read from the data and is not stated in words by the source.

By UniProt entry, the sequences of proteins in these tests, tags left out. Residues count along the entry.
UniProt Q13308, 31-1070: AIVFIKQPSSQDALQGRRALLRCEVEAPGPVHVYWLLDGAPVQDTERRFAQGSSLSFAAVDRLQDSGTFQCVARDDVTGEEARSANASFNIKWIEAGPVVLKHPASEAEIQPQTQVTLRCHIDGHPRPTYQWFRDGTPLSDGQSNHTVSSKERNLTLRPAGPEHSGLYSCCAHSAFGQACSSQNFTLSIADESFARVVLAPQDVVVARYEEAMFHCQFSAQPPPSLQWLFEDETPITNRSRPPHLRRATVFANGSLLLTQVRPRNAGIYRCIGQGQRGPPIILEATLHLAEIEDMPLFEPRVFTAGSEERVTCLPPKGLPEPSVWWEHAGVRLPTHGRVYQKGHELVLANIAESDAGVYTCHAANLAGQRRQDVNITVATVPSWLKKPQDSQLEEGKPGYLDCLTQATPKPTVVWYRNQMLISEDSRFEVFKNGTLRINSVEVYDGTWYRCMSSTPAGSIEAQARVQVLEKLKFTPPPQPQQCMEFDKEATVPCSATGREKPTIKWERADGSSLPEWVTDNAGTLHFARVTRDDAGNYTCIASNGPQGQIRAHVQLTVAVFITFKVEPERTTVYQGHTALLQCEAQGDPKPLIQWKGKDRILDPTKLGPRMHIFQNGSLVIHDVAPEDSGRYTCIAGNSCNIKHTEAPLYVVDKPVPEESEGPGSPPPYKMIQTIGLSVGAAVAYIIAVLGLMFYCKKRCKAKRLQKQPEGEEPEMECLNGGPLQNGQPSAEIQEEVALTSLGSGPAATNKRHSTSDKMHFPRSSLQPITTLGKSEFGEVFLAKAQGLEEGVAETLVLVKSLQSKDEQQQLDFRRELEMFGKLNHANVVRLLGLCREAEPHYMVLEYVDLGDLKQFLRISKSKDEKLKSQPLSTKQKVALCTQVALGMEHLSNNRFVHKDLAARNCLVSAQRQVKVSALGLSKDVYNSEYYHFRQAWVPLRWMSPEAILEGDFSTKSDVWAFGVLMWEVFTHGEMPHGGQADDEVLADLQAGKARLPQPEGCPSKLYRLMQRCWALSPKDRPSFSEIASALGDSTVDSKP

Biological target: tyrosine protein kinase-7 (PTK7) (human (CEM and HeLa cells)) (UniProt Q13308)
Assay: flow cytometry on cells
Conditions: 37 °C, 30 min, protein on the cell surface, label: 5'-FAM, folded or branched DNA

GGTGGTGGAAGGACGTCCACCACCTCCTTCAAAAAAAAATCTAACTGCTGCGCCGCCGGGAAAATACTGTACGGTTAGA [FAM-sgc8c (hairpin-locked sgc8c aptamer)]
binding result (CEM cells): binds
binding result (HeLa cells): binds
